Assay results taken from patent publication US6472152B1 (priority 1998, dated 2002).
At least one structure is not confirmed: it was looked up by name or label, or the drawing left a doubt.

Test system: Salmonella typhimurium TA104 pr1
Settings: without S9-mix; within the dose-range tested

SMILES | Toxic (pri)
CCOS(C)(=O)=O [EMS] | −
COS(C)(=O)=O [MMS] | −
